Experimental data: PubChem BioAssay AID1259308 (NCATS, 2017)
This is one part, drawn at random, of about 59,000 reagents tested. About 1,510 of all reagents (2.6%) count as active. 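Calls use total luciferase alone and ignore viability, so some active siRNAs may act by altering cell number.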 Reagents against one gene are numbered here. Not all columns of the deposit are shown. No sequences are given here.

Screen: 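Candidate targets for better recombinant protein yield in mammalian cells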 (primary screen)
Cell system: human HEK293 embryonic kidney cells stably expressing firefly luciferase (HEK-CMV-Luc2-Hygro)
Reagent: single siRNA against human genes, 0.8 pmol siRNA per well
Time to read-out: 72 h
Detection: 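Reporter luminescence and viable-cell signal on separate replicate plates, given as percent of non-targeting control and median/MAD z-scores, plus per-cell luciferase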
Scale: total luciferase, z-score and total luciferase, % of control: higher = more reporter protein produced
Call rule: 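An siRNA counts as active if its total luciferase robust z-score exceeds 3; genes with two or more such siRNAs out of three were retested with fresh siRNAs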
Meaning of the calls: active = raised luciferase; inactive = no rise

What is on record for KRT79 (GeneID 338785) #1?
total luciferase, z-score: 0.817; total luciferase, % of control: 98.1; Outcome: inactive

What is on record for KRT79 (GeneID 338785) #2?
total luciferase, z-score: 0.406; total luciferase, % of control: 90; Outcome: inactive

For KRT79 (GeneID 338785) #3, how do the results read?
total luciferase, z-score: -0.796; total luciferase, % of control: 66.1; Outcome: inactive

Which result is listed for PTCD2 (GeneID 79810) #1?
total luciferase, z-score: 1.44; total luciferase, % of control: 111; Outcome: inactive

For PTCD2 (GeneID 79810) #2, what was measured?
total luciferase, z-score: -0.516; total luciferase, % of control: 71.6; Outcome: inactive

How did the screen score PTCD2 (GeneID 79810) #3?
total luciferase, z-score: -1.07; total luciferase, % of control: 60.5; Outcome: inactive

What is on record for ANP32E (GeneID 81611) #1?
total luciferase, z-score: 0.568; total luciferase, % of control: 93.2; Outcome: inactive

How did the screen score ANP32E (GeneID 81611) #2?
total luciferase, z-score: -2.2; total luciferase, % of control: 38.2; Outcome: inactive

Which result is listed for ANP32E (GeneID 81611) #3?
total luciferase, z-score: -0.832; total luciferase, % of control: 65.3; Outcome: inactive

How did the screen score COL2A1 (GeneID 1280) #1?
total luciferase, z-score: -0.851; total luciferase, % of control: 65; Outcome: inactive

For COL2A1 (GeneID 1280) #2, how do the results read?
total luciferase, z-score: -0.274; total luciferase, % of control: 76.4; Outcome: inactive

For COL2A1 (GeneID 1280) #3, how do the results read?
total luciferase, z-score: 0.683; total luciferase, % of control: 95.5; Outcome: inactive

With EXOC3 (GeneID 11336) #1, how do the results read?
total luciferase, z-score: 0.86; total luciferase, % of control: 99; Outcome: inactive

For EXOC3 (GeneID 11336) #2, how do the results read?
total luciferase, z-score: -0.289; total luciferase, % of control: 76.1; Outcome: inactive

With EXOC3 (GeneID 11336) #3, what does the deposit list?
total luciferase, z-score: 0.0704; total luciferase, % of control: 83.3; Outcome: inactive

What did the screen give for ARHGAP1 (GeneID 392) #1?
total luciferase, z-score: -1.72; total luciferase, % of control: 47.7; Outcome: inactive

What did the screen give for ARHGAP1 (GeneID 392) #2?
total luciferase, z-score: -0.445; total luciferase, % of control: 73; Outcome: inactive

With ARHGAP1 (GeneID 392) #3, what was measured?
total luciferase, z-score: 4.01; total luciferase, % of control: 162; Outcome: active

For C3orf22 (GeneID 152065) #1, what does the deposit list?
total luciferase, z-score: -0.393; total luciferase, % of control: 74.1; Outcome: inactive

What is on record for C3orf22 (GeneID 152065) #2?
total luciferase, z-score: -0.408; total luciferase, % of control: 73.8; Outcome: inactive

For C3orf22 (GeneID 152065) #3, what does the deposit list?
total luciferase, z-score: 2.24; total luciferase, % of control: 126; Outcome: inactive

Already shown: entries from further up.
ANP32E (GeneID 81611) #1 | total luciferase, z-score: 0.568; total luciferase, % of control: 93.2; Outcome: inactive
ANP32E (GeneID 81611) #2 | total luciferase, z-score: -2.2; total luciferase, % of control: 38.2; Outcome: inactive
